Laboratory results from patent US10501511B2 (SHANGHAI FIRST PEOPLE'S HOSPITAL, priority 2013, dated 2019).

Assay: general procedure: peptide synthesis; FMOC-Ala-Wang-Resin
Settings: whole synthesis, scale 100 μmol

With RNPRGEEGGPW-OH as the substance, how does the “final purity (method not given)” value read?
Its value is over 95%.

And the isolated mass?
The isolated mass was 120 mg.

Where no end group is shown, it is not given here.
